Reference: US20200181263A1
No constants are given. Whether binding was seen depends on the method and setting. Some binding calls cover weakened binding; strength is not graded here.

Amino acid sequences for entries named in this document (tags omitted). A change or cut given only in a name is not applied to a line headed by its entry.
UniProt P09693: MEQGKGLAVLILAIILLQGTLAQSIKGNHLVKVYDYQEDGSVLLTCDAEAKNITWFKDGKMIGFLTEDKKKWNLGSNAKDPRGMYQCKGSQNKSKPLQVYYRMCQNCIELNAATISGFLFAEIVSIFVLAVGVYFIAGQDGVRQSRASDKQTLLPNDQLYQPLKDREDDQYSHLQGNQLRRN
UniProt P07766: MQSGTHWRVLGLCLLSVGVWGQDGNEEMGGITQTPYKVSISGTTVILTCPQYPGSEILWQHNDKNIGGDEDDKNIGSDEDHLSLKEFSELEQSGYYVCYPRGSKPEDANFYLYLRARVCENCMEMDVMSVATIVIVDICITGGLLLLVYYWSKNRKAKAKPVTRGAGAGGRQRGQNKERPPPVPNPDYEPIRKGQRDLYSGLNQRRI

B1: PRO737 (protein)
chain 1: DIQMTQSPSSLSASVGDRVTITCQASENIYSFLAWYQQKPGKAPKLLIYSASKLAAGVPSRFSGSGSGTDFTLTISSLQPEDFATYYCQQTNRYSNPDIYNVFGTGTKVTVLGGGGGSGGGGSGGGGSGGGGSEVQLVESGGGLVQPGGSLRLSCAASGIDFNSNYYMCWVRQAPGKGLEWIGCIYVGSHVNTYYANWAKGRFTISRDNSKNTVYLQMNSLRAEDTAVYYCATSGSSVLYFKFWGQGTLVTVSSGGGGSGGGGSDIQMTQSPSSLSASVGDRVTITCQSSESVYNNKRLSWYQQKPGKAPKLLIYTASSLASGVPSRFSGSGSGTDFTLTISSLQPEDFATYYCQGEFTCSNADCFTFGCGTKVTVLGGGGGSGGGGSGGGGSDIQMTQSPSSLSASVGDRVTITCQSSESVYSNNQLSWYQQKPGQPPKLLIYDASDLASGVPSRFSGSGSGTDFTLTISSLQPEDFATYYCAGGFSSSSDTAFGGGTKLTVLG
chain 2: DIQMTQSPSSLSASVGDRVTITCQASENIYSFLAWYQQKPGKAPKLLIYSASKLAAGVPSRFSGSGSGTDFTLTISSLQPEDFATYYCQQTNRYSNPDIYNVFGTGTKVTVLGGGGGSGGGGSGGGGSGGGGSEVQLVESGGGLVQPGGSLRLSCAASGIDFNSNYYMCWVRQAPGKGLEWIGCIYVGSHVNTYYANWAKGRFTISRDNSKNTVYLQMNSLRAEDTAVYYCATSGSSVLYFKFWGQGTLVTVSSGGGGSGGGGSEVQLVESGGGLVQPGGSLRLSCAASGFPLSSYAMIWVRQAPGKCLEWIGMILRAGNIYYASWVKGRFTISRDNSKNTVYLQMNSLRAEDTAVYYCARRHYNREGYPIGIGDLWGQGTLVTVSSGGGGSGGGGSGGGGSEVQLVESGGGLVQPGGSLRLSCAASGFSLSSNAMGWVRQAPGKGLEYIGIISVGGFTYYASWAKGRFTISRDNSKNTVYLQMNSLRAEDTATYFCARDRHGGDSSGAFYLWGQGTLVTVSS
B2: PRO738 (protein)
chain 1: DIQMTQSPSSLSASVGDRVTITCQASENIYSFLAWYQQKPGKAPKLLIYSASKLAAGVPSRFSGSGSGTDFTLTISSLQPEDFATYYCQQTNRYSNPDIYNVFGTGTKVTVLGGGGGSGGGGSGGGGSGGGGSEVQLVESGGGLVQPGGSLRLSCAASGIDFNSNYYMCWVRQAPGKGLEWIGCIYVGSHVNTYYANWAKGRFTISRDNSKNTVYLQMNSLRAEDTAVYYCATSGSSVLYFKFWGQGTLVTVSSGGGGSGGGGSDIQMTQSPSSLSASVGDRVTITCQSSQSVFSNNYLAWFQQKPGQSPKRLIYSASTLASGVPSRFSGSGSGTDFTLTISSLQPEDFATYYCLGSYACSSADCYVFGCGTKVTVLGGGGGSGGGGSGGGGSDIQMTQSPSSLSASVGDRVTITCQSSESVYSNNQLSWYQQKPGQPPKLLIYDASDLASGVPSRFSGSGSGTDFTLTISSLQPEDFATYYCAGGFSSSSDTAFGGGTKLTVLG
chain 2: DIQMTQSPSSLSASVGDRVTITCQASENIYSFLAWYQQKPGKAPKLLIYSASKLAAGVPSRFSGSGSGTDFTLTISSLQPEDFATYYCQQTNRYSNPDIYNVFGTGTKVTVLGGGGGSGGGGSGGGGSGGGGSEVQLVESGGGLVQPGGSLRLSCAASGIDFNSNYYMCWVRQAPGKGLEWIGCIYVGSHVNTYYANWAKGRFTISRDNSKNTVYLQMNSLRAEDTAVYYCATSGSSVLYFKFWGQGTLVTVSSGGGGSGGGGSEVQLVESGGGLVQPGGSLRLSCAASGFSLSSNAMGWVRQAPGKGLEYIGIISVGGFTYYASWAKGRFTISRDNSKNTVYLQMNSLRAEDTATYFCARDRHGGDSSGAFYLWGQGTLVTVSSGGGGSGGGGSGGGGSEVQLVESGGGLVQPGGSLRLSCAASGFSLSSYDMSWVRQAPGKCLAWIGASYASGPTYYASWAKGRFTISRDNSKNTVYLQMNSLRAEDTATYFCARGGWTGTSHSNIWGQGTLVTVSS
B3: PRO741 (protein)
chain 1: DIQMTQSPSSLSASVGDRVTITCQASENIYSFLAWYQQKPGKAPKLLIYSASKLAAGVPSRFSGSGSGTDFTLTISSLQPEDFATYYCQQTNRYSNPDIYNVFGTGTKVTVLGGGGGSGGGGSGGGGSGGGGSEVQLVESGGGLVQPGGSLRLSCAASGIDFNSNYYMCWVRQAPGKGLEWIGCIYVGSHVNTYYANWAKGRFTISRDNSKNTVYLQMNSLRAEDTAVYYCATSGSSVLYFKFWGQGTLVTVSSGGGGSGGGGSDIQMTQSPSSLSASVGDRVTITCQSSQSVFSNNYLAWFQQKPGQSPKRLIYSASTLASGVPSRFSGSGSGTDFTLTISSLQPEDFATYYCLGSYACSSADCYVFGCGTKVTVLGSGGGGSGGGGSDVVMTQSPSSLSASVGDRVTITCQASQIISSRSAWYQQKPGQPPKLLIYQASKLASGVPSRFSGSGSGTDFTLTISSLQPEDFATYYCQCTYIDSNFGAFGGGTKLTVLG
chain 2: DIQMTQSPSSLSASVGDRVTITCQASENIYSFLAWYQQKPGKAPKLLIYSASKLAAGVPSRFSGSGSGTDFTLTISSLQPEDFATYYCQQTNRYSNPDIYNVFGTGTKVTVLGGGGGSGGGGSGGGGSGGGGSEVQLVESGGGLVQPGGSLRLSCAASGIDFNSNYYMCWVRQAPGKGLEWIGCIYVGSHVNTYYANWAKGRFTISRDNSKNTVYLQMNSLRAEDTAVYYCATSGSSVLYFKFWGQGTLVTVSSGGGGSGGGGSEVQLVESGGGLVQPGGSLRLSCAASGFSFSSSYWICWVRQAPGKGLEWVGCVFTGDGTTYYASWAKGRFTISRDNSKNTVYLQMNSLRAEDTATYFCARPVSVYYYGMDLWGQGTLVTVSSSGGGGSGGGGSEVQLVESGGGLVQPGGSLRLSCAASGFSLSSYDMSWVRQAPGKCLAWIGASYASGPTYYASWAKGRFTISRDNSKNTVYLQMNSLRAEDTATYFCARGGWTGTSHSNIWGQGTLVTVSS
B4: PRO747 (protein)
chain 1: DIQMTQSPSSLSASVGDRVTITCQASENIYSFLAWYQQKPGKAPKLLIYSASKLAAGVPSRFSGSGSGTDFTLTISSLQPEDFATYYCQQTNRYSNPDIYNVFGTGTKVTVLGGGGGSGGGGSGGGGSGGGGSEVQLVESGGGLVQPGGSLRLSCAASGIDFNSNYYMCWVRQAPGKGLEWIGCIYVGSHVNTYYANWAKGRFTISRDNSKNTVYLQMNSLRAEDTAVYYCATSGSSVLYFKFWGQGTLVTVSSGGGGSGGGGSDIQMTQSPSSLSASVGDRVTITCQSSQSVFSNNYLAWFQQKPGQSPKRLIYSASTLASGVPSRFSGSGSGTDFTLTISSLQPEDFATYYCLGSYACSSADCYVFGCGTKVTVLGAEAAAKEAAAKADIQMTQSPSSLSASVGDRVTITCQSSESVYSNNQLSWYQQKPGQPPKLLIYDASDLASGVPSRFSGSGSGTDFTLTISSLQPEDFATYYCAGGFSSSSDTAFGGGTKLTVLG
chain 2: DIQMTQSPSSLSASVGDRVTITCQASENIYSFLAWYQQKPGKAPKLLIYSASKLAAGVPSRFSGSGSGTDFTLTISSLQPEDFATYYCQQTNRYSNPDIYNVFGTGTKVTVLGGGGGSGGGGSGGGGSGGGGSEVQLVESGGGLVQPGGSLRLSCAASGIDFNSNYYMCWVRQAPGKGLEWIGCIYVGSHVNTYYANWAKGRFTISRDNSKNTVYLQMNSLRAEDTAVYYCATSGSSVLYFKFWGQGTLVTVSSGGGGSGGGGSEVQLVESGGGLVQPGGSLRLSCAASGFSLSSNAMGWVRQAPGKGLEYIGIISVGGFTYYASWAKGRFTISRDNSKNTVYLQMNSLRAEDTATYFCARDRHGGDSSGAFYLWGQGTLVTVSSAEAAAKEAAAKAEVQLVESGGGLVQPGGSLRLSCAASGFSLSSYDMSWVRQAPGKCLAWIGASYASGPTYYASWAKGRFTISRDNSKNTVYLQMNSLRAEDTATYFCARGGWTGTSHSNIWGQGTLVTVSS

Target: human CD3 gamma-epsilon single-chain (human) (UniProt P09693+P07766)
Assay: SPR

binding, binds:
B1
B2
B3
B4
